Assay results reported in the supplement of paper PMC10849652.
The list shows a part of the results.

By UniProt entry, the sequences of proteins in these tests, tags left out. Where a name states a change or a piece, a line headed by the entry shows the natural chain unless it says otherwise.
UniProt Q8N357: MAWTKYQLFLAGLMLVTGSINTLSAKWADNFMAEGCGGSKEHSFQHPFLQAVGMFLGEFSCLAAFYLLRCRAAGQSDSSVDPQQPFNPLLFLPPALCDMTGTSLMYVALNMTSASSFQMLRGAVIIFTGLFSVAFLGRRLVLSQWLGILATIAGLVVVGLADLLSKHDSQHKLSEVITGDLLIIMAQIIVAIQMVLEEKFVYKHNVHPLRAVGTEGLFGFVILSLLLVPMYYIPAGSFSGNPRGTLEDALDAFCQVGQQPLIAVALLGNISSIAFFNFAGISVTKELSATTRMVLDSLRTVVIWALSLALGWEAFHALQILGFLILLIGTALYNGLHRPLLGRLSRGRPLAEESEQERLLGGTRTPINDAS
UniProt Q6PCB7: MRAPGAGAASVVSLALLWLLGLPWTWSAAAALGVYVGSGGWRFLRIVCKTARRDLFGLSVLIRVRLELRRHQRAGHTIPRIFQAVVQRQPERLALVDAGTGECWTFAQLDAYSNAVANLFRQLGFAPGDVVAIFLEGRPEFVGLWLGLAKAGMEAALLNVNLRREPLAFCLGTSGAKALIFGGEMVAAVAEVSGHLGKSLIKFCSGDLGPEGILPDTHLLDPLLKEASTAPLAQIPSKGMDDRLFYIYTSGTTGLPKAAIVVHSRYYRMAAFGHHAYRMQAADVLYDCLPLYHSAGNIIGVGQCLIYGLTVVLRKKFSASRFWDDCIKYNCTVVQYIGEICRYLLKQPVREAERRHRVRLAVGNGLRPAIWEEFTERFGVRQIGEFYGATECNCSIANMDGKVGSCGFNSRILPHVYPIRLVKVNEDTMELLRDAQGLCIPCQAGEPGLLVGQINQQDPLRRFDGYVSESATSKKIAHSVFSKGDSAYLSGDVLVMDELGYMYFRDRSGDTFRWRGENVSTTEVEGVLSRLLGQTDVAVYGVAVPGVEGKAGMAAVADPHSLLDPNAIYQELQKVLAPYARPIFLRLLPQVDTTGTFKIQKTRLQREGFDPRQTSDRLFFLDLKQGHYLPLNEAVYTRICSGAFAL
UniProt Q8N1S5: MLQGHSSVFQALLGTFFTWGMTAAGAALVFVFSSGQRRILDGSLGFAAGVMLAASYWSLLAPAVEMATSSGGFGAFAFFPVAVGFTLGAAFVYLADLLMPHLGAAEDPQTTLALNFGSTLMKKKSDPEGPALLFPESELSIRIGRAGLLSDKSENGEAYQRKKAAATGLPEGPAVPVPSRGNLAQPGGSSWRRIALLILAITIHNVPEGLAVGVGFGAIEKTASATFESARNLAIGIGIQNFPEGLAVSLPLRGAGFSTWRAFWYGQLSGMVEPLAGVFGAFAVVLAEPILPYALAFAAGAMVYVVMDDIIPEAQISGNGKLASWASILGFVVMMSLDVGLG
UniProt Q9BV35: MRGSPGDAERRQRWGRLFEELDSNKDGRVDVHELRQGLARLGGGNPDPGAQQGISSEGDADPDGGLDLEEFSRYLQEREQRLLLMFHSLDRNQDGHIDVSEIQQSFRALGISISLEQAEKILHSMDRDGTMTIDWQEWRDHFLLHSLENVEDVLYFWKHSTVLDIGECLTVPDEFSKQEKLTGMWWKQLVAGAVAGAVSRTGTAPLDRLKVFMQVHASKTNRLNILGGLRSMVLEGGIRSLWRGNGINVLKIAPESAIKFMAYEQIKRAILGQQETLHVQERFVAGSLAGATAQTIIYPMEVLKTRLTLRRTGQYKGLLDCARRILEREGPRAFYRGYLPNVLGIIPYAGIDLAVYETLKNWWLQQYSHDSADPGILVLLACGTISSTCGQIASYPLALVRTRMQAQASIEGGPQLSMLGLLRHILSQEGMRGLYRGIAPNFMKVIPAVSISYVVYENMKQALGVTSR
UniProt Q9NVC3: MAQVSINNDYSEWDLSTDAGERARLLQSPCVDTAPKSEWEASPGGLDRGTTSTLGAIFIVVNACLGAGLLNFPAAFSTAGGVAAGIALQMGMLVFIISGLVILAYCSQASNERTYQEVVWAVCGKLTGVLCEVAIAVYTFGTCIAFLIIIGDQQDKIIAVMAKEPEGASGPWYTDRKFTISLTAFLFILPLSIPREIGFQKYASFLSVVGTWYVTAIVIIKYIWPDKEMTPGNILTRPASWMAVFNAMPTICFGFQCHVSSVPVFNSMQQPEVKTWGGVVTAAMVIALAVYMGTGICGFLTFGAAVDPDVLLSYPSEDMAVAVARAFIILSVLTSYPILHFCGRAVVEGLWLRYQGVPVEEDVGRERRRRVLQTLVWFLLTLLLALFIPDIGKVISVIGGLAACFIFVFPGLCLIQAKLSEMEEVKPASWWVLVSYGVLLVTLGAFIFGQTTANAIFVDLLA
UniProt P78383: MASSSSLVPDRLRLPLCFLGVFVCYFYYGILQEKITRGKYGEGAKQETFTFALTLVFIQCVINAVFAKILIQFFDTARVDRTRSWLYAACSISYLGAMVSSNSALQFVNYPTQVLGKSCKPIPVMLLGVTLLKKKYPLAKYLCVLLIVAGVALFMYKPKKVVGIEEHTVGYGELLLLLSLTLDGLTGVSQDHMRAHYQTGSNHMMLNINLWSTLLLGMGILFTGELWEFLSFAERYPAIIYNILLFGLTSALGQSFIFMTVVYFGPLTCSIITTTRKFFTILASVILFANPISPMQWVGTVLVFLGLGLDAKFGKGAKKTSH
UniProt Q8NBW4: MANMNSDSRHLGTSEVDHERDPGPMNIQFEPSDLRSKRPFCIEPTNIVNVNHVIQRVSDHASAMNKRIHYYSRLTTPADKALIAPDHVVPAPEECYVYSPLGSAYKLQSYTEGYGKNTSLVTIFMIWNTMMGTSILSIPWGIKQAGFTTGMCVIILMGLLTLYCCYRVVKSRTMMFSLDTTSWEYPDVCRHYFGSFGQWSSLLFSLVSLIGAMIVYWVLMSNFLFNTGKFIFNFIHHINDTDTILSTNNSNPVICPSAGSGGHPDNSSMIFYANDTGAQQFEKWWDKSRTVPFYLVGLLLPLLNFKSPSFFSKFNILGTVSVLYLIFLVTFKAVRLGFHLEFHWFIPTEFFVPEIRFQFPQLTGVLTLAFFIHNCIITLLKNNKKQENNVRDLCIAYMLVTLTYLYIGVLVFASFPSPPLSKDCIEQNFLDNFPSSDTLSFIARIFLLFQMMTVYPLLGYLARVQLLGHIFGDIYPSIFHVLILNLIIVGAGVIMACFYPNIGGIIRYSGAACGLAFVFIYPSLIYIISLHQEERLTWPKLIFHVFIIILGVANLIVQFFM
UniProt Q9Y2D2: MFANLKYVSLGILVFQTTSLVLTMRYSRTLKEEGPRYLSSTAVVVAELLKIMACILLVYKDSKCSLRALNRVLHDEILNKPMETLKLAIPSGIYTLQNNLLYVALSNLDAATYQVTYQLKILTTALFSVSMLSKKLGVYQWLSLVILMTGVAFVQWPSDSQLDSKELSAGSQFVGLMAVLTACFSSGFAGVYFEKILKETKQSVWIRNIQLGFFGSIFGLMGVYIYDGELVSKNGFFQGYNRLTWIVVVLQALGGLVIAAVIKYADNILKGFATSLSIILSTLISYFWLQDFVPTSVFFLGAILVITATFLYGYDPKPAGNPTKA
UniProt Q15758: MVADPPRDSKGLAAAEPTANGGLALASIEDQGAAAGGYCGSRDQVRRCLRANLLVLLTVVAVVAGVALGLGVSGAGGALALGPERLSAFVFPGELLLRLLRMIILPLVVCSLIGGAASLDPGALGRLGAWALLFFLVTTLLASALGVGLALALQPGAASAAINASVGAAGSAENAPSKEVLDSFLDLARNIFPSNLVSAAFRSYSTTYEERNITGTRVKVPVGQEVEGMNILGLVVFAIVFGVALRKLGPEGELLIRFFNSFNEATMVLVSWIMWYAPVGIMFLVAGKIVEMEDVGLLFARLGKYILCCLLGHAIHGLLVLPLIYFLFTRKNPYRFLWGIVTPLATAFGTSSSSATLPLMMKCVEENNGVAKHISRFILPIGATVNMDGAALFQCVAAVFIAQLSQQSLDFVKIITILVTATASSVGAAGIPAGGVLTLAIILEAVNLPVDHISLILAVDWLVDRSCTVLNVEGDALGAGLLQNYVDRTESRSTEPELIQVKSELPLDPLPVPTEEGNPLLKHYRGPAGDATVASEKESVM
UniProt O14975, whole entry, looked up: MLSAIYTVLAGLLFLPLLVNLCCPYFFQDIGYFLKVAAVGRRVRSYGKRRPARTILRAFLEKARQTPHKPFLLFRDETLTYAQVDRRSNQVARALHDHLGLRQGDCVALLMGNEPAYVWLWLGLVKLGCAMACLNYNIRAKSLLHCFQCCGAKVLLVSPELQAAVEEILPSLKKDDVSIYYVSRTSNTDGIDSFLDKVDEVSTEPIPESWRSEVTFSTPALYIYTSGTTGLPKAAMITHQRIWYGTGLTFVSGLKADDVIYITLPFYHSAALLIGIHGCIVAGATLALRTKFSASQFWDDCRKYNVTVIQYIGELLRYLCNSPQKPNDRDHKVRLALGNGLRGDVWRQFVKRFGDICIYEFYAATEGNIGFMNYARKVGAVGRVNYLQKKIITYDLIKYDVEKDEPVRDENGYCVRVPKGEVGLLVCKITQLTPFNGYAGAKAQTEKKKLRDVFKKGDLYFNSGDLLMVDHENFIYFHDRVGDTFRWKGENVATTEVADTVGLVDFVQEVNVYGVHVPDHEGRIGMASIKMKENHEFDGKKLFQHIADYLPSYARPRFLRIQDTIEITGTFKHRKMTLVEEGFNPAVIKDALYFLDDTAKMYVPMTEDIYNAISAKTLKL
UniProt Q8NEW0: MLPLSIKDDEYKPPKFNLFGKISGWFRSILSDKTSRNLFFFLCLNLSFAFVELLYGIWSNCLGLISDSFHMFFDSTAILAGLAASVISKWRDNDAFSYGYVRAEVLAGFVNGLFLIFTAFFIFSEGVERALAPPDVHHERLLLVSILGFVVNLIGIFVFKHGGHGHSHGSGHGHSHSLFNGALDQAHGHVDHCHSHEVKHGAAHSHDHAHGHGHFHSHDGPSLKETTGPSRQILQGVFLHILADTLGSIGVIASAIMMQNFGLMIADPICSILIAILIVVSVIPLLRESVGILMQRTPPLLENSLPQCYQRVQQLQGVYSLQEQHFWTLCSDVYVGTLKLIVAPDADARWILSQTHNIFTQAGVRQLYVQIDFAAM
UniProt Q6P1M0: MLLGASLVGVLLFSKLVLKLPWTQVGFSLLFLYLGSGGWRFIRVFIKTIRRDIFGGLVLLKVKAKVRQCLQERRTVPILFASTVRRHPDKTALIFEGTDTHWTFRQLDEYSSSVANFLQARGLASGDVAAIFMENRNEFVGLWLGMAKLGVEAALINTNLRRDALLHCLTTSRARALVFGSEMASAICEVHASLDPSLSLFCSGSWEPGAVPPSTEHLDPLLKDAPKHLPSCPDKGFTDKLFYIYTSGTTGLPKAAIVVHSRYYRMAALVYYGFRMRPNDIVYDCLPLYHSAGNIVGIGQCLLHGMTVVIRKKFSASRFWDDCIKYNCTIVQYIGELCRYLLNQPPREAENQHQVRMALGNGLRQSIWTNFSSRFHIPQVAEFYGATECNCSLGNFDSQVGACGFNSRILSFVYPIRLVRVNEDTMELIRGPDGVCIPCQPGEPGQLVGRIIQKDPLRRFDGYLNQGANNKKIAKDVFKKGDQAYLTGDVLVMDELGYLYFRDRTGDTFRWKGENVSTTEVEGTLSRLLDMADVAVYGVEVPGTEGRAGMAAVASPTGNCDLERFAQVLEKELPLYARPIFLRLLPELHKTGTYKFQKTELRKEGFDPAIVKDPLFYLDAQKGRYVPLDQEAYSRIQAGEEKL
UniProt Q96DW6: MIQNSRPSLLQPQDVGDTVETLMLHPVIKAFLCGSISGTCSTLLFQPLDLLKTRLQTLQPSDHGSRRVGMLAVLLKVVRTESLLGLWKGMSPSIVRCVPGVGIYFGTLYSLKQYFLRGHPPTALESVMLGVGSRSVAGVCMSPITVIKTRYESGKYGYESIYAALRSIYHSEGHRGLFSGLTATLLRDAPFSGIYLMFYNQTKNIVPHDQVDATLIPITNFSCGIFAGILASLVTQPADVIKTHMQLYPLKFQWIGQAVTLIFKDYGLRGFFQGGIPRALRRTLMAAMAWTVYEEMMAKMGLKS
UniProt O15431: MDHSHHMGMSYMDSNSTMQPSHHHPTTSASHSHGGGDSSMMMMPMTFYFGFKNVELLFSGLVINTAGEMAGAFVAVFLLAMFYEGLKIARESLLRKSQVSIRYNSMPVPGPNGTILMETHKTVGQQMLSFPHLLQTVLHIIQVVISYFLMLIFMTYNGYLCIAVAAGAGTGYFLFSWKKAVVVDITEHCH
UniProt Q0GE19: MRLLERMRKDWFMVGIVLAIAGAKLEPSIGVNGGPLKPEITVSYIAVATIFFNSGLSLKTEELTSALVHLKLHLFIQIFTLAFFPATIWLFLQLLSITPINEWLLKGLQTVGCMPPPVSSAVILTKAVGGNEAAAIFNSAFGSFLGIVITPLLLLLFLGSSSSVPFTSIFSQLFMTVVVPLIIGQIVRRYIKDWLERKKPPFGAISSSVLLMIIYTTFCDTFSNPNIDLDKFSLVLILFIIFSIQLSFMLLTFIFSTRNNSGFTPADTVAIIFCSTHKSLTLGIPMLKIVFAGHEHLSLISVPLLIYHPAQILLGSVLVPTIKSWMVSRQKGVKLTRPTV

Assays:
Assay in all cases: log2 fold change, soluble protein after heating vs DMSO (PISA); higher = thermal stabilisation; K562 cells, 10 uM, 30 min; active = over 0.2 and 3.5 SD of the protein, either way, in both replicates (recomputed)
[1] = compound: CS(=O)(=O)c1ccc(-c2cnc(N)c(C(=O)Nc3ccccc3)n2)cc1
Procedure, shortened: (§1)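 K562 cells at 2×10^6 cells/mL were exposed to 10 μM compound for 30 min, then aliquots were heated for 3 min across 48°C-58°C, pooled, and extracted in PBS containing 0.5% NP-40 at 4°C. The supernatant after 21,000xg for 90 min was taken as soluble protein and measured by TMTpro 16plex LC-MS/MS with channel sums equalised. Thermal stability is reported relative to control samples, with values from duplicates. Fold changes are given on a log2 scale.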

[2] = compound: C[C@@H]1COCCN1C2=NC(=NC(=C2)C3(CC3)S(=O)(=O)C)C4=C5C=CNC5=CC=C4
Procedure, shortened: as §1

[3] = compound: C[C@H](C1=CC=C(C=C1)C(=O)NC2=C3C=CNC3=NC=C2)N
Procedure, shortened: as §1

[4] = compound: Cc1cc(SCc2sc(-c3ccc(C(F)(F)F)cc3)nc2C)ccc1OCC(=O)O
Procedure, shortened: as §1

ispinesib = compound: Cc1ccc(C(=O)N(CCCN)[C@@H](c2nc3cc(Cl)ccc3c(=O)n2Cc2ccccc2)C(C)C)cc1 [ispinesib]
Procedure, shortened: as §1

bafetinib = compound: Cc1ccc(NC(=O)c2ccc(CN3CC[C@H](N(C)C)C3)c(C(F)(F)F)c2)cc1Nc1nccc(-c2cncnc2)n1 [bafetinib]
Procedure, shortened: as §1

nilotinib = compound: Cc1cn(-c2cc(NC(=O)c3ccc(C)c(Nc4nccc(-c5cccnc5)n4)c3)cc(C(F)(F)F)c2)cn1 [nilotinib]
Procedure, shortened: as §1

[5] = compound: Cc1nc(Nc2n[nH]c3c2CN(C(=O)N[C@H](CN(C)C)c2ccccc2)C3(C)C)c2sccc2n1
Procedure, shortened: as §1

dasatinib = compound: Cc1nc(Nc2ncc(C(=O)Nc3c(C)cccc3Cl)s2)cc(N2CCN(CCO)CC2)n1 [dasatinib]
Procedure, shortened: as §1

[6] = compound: Cc1ncc(-c2ccnc(Nc3ccc(S(C)(=O)=O)cc3)n2)n1C(C)C
Procedure, shortened: as §1

[7] = compound: Cn1cc(-c2ccc3c(c2)CCN3C(=O)Cc2cccc(C(F)(F)F)c2)c2c(N)ncnc21
Procedure, shortened: as §1

[8] = compound: Cn1cc(-c2ccc3nnc(C(F)(F)c4ccc5ncccc5c4)n3n2)cn1
Procedure, shortened: as §1

tipifarnib = compound: Cn1cncc1[C@@](N)(c1ccc(Cl)cc1)c1ccc2c(c1)c(-c1cccc(Cl)c1)cc(=O)n2C [tipifarnib]
Procedure, shortened: as §1

mubritinib = compound: FC(F)(F)c1ccc(/C=C/c2nc(COc3ccc(CCCCn4ccnn4)cc3)co2)cc1 [mubritinib]
Procedure, shortened: as §1

crizotinib = compound: C[C@@H](Oc1cc(-c2cnn(C3CCNCC3)c2)cnc1N)c1c(Cl)ccc(F)c1Cl [crizotinib]
Procedure, shortened: as §1

doramapimod = compound: Cc1ccc(-n2nc(C(C)(C)C)cc2NC(=O)Nc2ccc(OCCN3CCOCC3)c3ccccc23)cc1 [doramapimod]
Procedure, shortened: as §1

gandotinib = compound: Cc1cc(Nc2cc(CN3CCOCC3)c3nc(C)c(Cc4ccc(Cl)cc4F)n3n2)n[nH]1 [gandotinib]
Procedure, shortened: as §1

[9] = compound: Cc1cccc(CC(=O)N2CCc3c2ccc(-c2cn(C)c4ncnc(N)c24)c3F)n1
Procedure, shortened: as §1

duvelisib = compound: C[C@H](Nc1ncnc2nc[nH]c12)c1cc2cccc(Cl)c2c(=O)n1-c1ccccc1 [duvelisib]
Procedure, shortened: as §1

tozasertib = compound: Cc1cc(Nc2cc(N3CCN(C)CC3)nc(Sc3ccc(NC(=O)C4CC4)cc3)n2)n[nH]1 [tozasertib]
Procedure, shortened: as §1

Measured: log2 fold change

SLC35F6 (UniProt Q8N357)
inactive: [1] -0.247 | [2] 0.021 | [3] 0.076 | [4] -0.219 | ispinesib -0.083 | bafetinib -0.208 | nilotinib -0.037 | [5] -0.13 | dasatinib 0.078 | [6] 0.143 | [7] 0.049 | [8] 0.052 | tipifarnib 0.01 | mubritinib 0.072

SLC27A1 (UniProt Q6PCB7)
active: mubritinib 0.431
inactive: [1] 0.116 | crizotinib 0.123 | [2] 0.016 | [3] -0.099 | [4] 0.112 | doramapimod 0.062 | ispinesib 0.06 | bafetinib 0.047 | nilotinib -0.087 | [5] -0.009 | dasatinib -0.152 | [6] 0.079 | [7] -0.053 | [8] 0.046 | tipifarnib 0.094

SLC39A11 (UniProt Q8N1S5)
inactive: [1] 0.121 | crizotinib 0.109 | [3] -0.066 | gandotinib 0.271 | [4] -0.126 | doramapimod 0.009 | ispinesib 0.085 | bafetinib -0.13 | [9] -0.043 | nilotinib -0.028 | [5] 0.001 | dasatinib 0.058 | [6] 0.248 | [7] 0.128 | [8] 0.002 | tipifarnib 0.048 | mubritinib -0.005

SLC25A23 isoform 3 (UniProt Q9BV35)
inactive: [1] 0.115 | crizotinib 0.174 | [3] 0.029 | duvelisib 0.078 | gandotinib -0.065 | tozasertib 0.06 | [4] 0.009 | doramapimod 0 | ispinesib 0.008 | bafetinib -0.037 | [9] 0.029 | nilotinib -0.003 | [5] -0.329 | dasatinib -0.116 | [6] 0.196 | [7] -0.067 | [8] 0.003 | tipifarnib -0.017 | mubritinib -0.107

SLC25A30 (UniProt Q5SVS4)
inactive: [1] -0.037 | crizotinib 0.07 | [3] -0.111 | duvelisib 0.058 | gandotinib 0.094 | [4] 0.083 | doramapimod -0.137 | ispinesib -0.054 | [9] 0.17 | nilotinib -0.118 | [5] -0.07 | dasatinib 0.029 | [6] -0.053 | [7] 0.103 | [8] -0.117 | tipifarnib 0.059

SLC38A7 (UniProt Q9NVC3)
active: ispinesib -0.842
inactive: [1] -0.018 | crizotinib -0.449 | [2] 0.045 | [3] -0.009 | gandotinib -0.412 | doramapimod 0.035 | bafetinib -0.142 | [9] 0.016 | nilotinib 0.05 | [5] -0.023 | [6] -0.053 | [7] -0.005 | [8] 0.084 | tipifarnib 0.056 | mubritinib -0.007

SLC35B1 isoform 2 (UniProt P78383)
inactive: [1] 0.049 | crizotinib -0.053 | [2] -0.042 | [4] 0 | doramapimod -0.061 | ispinesib -0.043 | bafetinib -0.018 | nilotinib -0.065 | [5] 0.052 | dasatinib 0.142 | [6] -0.097 | [7] -0.13 | [8] -0.172 | mubritinib 0.016
active: [3] -0.535

SLC38A9 (UniProt Q8NBW4)
active: ispinesib -0.474
inactive: [1] 0.165 | crizotinib -0.201 | [2] 0.052 | [3] 0.003 | gandotinib -0.018 | [4] -0.058 | doramapimod 0.067 | bafetinib -0.022 | [9] -0.04 | nilotinib 0.02 | [5] 0.05 | dasatinib 0.094 | [6] -0.081 | [7] -0.017 | [8] -0.034 | tipifarnib 0.038 | mubritinib 0.046

SLC35A3 isoform 2 (UniProt Q9Y2D2)
inactive: [1] -0.088 | crizotinib -0.048 | [2] 0.08 | gandotinib -0.024 | doramapimod -0.054 | ispinesib 0.343 | bafetinib -0.024 | [9] -0.005 | nilotinib -0.134 | [5] 0.028 | [6] -0.121 | [8] -0.086 | tipifarnib 0 | mubritinib 0.029

SLC1A5 (UniProt Q15758)
inactive: [1] 0.026 | crizotinib 0.13 | [2] 0.072 | [3] -0.186 | gandotinib -0.105 | [4] -0.091 | doramapimod -0.007 | ispinesib 0.167 | bafetinib 0.041 | [9] 0.004 | nilotinib 0.067 | [5] 0.023 | dasatinib 0.023 | [6] 0.014 | [7] 0.035 | [8] -0.032 | tipifarnib 0.026 | mubritinib 0.052

SLC27A2 (UniProt O14975)
inactive: crizotinib 0.046 | [2] -0.005 | [3] -0.031 | gandotinib 0.094 | [4] 0.108 | doramapimod 0.027 | ispinesib -0.056 | bafetinib 0.044 | [9] 0.005 | nilotinib 0.179 | [5] -0.104 | dasatinib -0.106 | [6] 0.025 | [7] 0.054 | [8] 0.073 | tipifarnib 0.187 | mubritinib -0.001
active: [1] 0.273

SLC30A7 (UniProt Q8NEW0)
active: gandotinib -0.348
inactive: [1] -0.01 | crizotinib 0.014 | [2] -0.022 | [3] -0.048 | [4] -0.007 | doramapimod -0.057 | ispinesib -0.016 | bafetinib -0.169 | [9] -0.094 | nilotinib -0.16 | [5] 0.052 | dasatinib 0.04 | [6] 0.003 | [7] 0.048 | [8] -0.026 | tipifarnib 0.023 | mubritinib 0.107

SLC27A4 (UniProt Q6P1M0)
active: mubritinib 0.598
inactive: [1] -0.008 | crizotinib 0.069 | [2] 0.059 | [3] -0.015 | gandotinib 0.122 | [4] 0.123 | doramapimod 0 | ispinesib -0.103 | bafetinib -0.026 | [9] 0.022 | nilotinib -0.098 | [5] -0.101 | dasatinib -0.113 | [6] 0.011 | [7] 0.003 | [8] 0.009 | tipifarnib 0.124

Copied from the listing (2 entries):
SLC35B1 isoform 2 (UniProt P78383)
inactive: [1] 0.049 | crizotinib -0.053 | [2] -0.042 | [4] 0 | doramapimod -0.061 | ispinesib -0.043 | bafetinib -0.018 | nilotinib -0.065 | [5] 0.052 | dasatinib 0.142 | [6] -0.097 | [7] -0.13 | [8] -0.172 | mubritinib 0.016
active: [3] -0.535

SLC38A9 (UniProt Q8NBW4)
active: ispinesib -0.474
inactive: [1] 0.165 | crizotinib -0.201 | [2] 0.052 | [3] 0.003 | gandotinib -0.018 | [4] -0.058 | doramapimod 0.067 | bafetinib -0.022 | [9] -0.04 | nilotinib 0.02 | [5] 0.05 | dasatinib 0.094 | [6] -0.081 | [7] -0.017 | [8] -0.034 | tipifarnib 0.038 | mubritinib 0.046

Remaining list, next part.

SLC25A38 (UniProt Q96DW6)
inactive: [1] 0.146 | crizotinib 0.105 | [2] 0.045 | [3] 0.002 | gandotinib -0.035 | [4] -0.058 | doramapimod 0.001 | ispinesib 0 | bafetinib -0.08 | [9] -0.03 | nilotinib -0.03 | [5] 0.023 | dasatinib 0.143 | [6] -0.114 | [7] 0.022 | [8] 0.019 | tipifarnib 0.043 | mubritinib 0.052

SLC31A1 (UniProt O15431)
inactive: crizotinib 0.013 | [2] 0.093 | [3] -0.233 | duvelisib 0.036 | gandotinib -0.013 | tozasertib -0.031 | [4] -0.035 | doramapimod -0.087 | ispinesib -0.037 | bafetinib 0.036 | [9] 0.005 | dasatinib 0.008 | [7] -0.003 | [8] 0.053 | tipifarnib 0.118 | mubritinib -0.022

SLC10A7 isoform 1 (UniProt Q0GE19)
inactive: tozasertib 0 | ispinesib 0.16 | bafetinib 0.022 | nilotinib 0.063 | [5] -0.121 | [6] -0.256 | [8] -0.085 | tipifarnib -0.087 | mubritinib -0.038

SLC27A6 (UniProt Q9Y2P4)
inactive: [2] 0.077 | [3] -0.208 | tozasertib -0.191 | ispinesib 0.103 | bafetinib -0.095 | nilotinib -0.201 | [5] 0.108 | [6] -0.025 | [7] 0.055 | [8] -0.123 | mubritinib 0.11

SLC66A1 (UniProt Q6ZP29)
inactive: bafetinib -0.219 | nilotinib 0.134 | [5] 0.079 | [6] -0.039 | mubritinib -0.204
